No constants are given. Whether binding was seen depends on the method and setting.

Protein sequences, listed by entry. Tags and fused reporters are not part of them. Lines headed by an entry give the natural chain unless they say otherwise; changes in a name come on top.
UniProt P50481: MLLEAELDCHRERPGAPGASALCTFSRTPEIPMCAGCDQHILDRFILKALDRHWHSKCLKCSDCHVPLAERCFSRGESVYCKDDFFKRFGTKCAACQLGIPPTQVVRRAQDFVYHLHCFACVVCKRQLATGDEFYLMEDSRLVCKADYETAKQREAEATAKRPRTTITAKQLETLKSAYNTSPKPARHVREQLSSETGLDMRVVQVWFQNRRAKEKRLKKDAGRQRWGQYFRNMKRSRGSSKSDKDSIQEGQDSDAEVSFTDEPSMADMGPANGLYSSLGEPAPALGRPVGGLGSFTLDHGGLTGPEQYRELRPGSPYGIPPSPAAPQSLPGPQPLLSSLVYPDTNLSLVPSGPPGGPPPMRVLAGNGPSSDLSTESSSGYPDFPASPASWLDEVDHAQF

Among the data in article PMC3405102, “Solution Structure of the LIM-Homeodomain Transcription Factor Complex Lhx3/Ldb1 and the Effects of a Pituitary Mutation on Key Lhx3 Interactions” (PLoS ONE, 2012) are binding values, retold here.

For this assay, the target named is Ldb1-Lhx3 tethered complex (mouse) (UniProt P70662+P50481). Put plainly: SAXS; Ldb1-Lhx3 tethered complex at 4.5 mg mL^-1 in 20 mM Na2HPO4, 40 mM NaCl, 1 mM DTT, pH 6.8, 283 K; mass from I(0), Guinier analysis, DAMMIF and BUNCH modelling; both purified.

B1: Ldb1-Lhx3 tethered complex (protein, UniProt P70662-3 300-339; P50481-1 28-153)
chain: DVMVVGEPTLMGGEFGDEDERLITRLENTQFDAANGIDDEGGSGGHMGSGGTPEIPMCAGCDQHILDRFILKALDRHWHSKCLKCSDCHVPLAERCFSRGESVYCKDDFFKRFGTKCAACQLGIPPTQVVRRAQDFVYHLHCFACVVCKRQLATGDEFYLMEDSRLVCKADYETAKQ
Consider B1, for which the binding result is recorded as “no binding (tested: 4.5 mg mL^-1)”.
